# Data as given in PubChem BioAssay AID1259254 (NCATS, 2017)
# Assay: 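Genome-wide screen for genes that prevent DNA re-replication in cancer cells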 (primary screen)
# System: human HCT116 colorectal cancer cells
# Reagent: single siRNA against human genes
# Time to read-out: 3 days
# Read-out: 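Imaged Hoechst DNA stain sorts each cell into a cycle phase by DNA amount; per plate, G2 fraction set to 0% for non-targeting and 100% for GMNN siRNA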
# Scale: G2 robust z-score and G2 cells, % of GMNN control: higher = more G2 cells, more excess DNA replication; raw share of cells in G2: higher = larger share of cells with G2 DNA content
# Rule for the call: 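Active siRNAs have a G2 robust z of 5 or more median absolute deviations over the median, which in these data means about 38% or higher of GMNN control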
# The deposit covers about 59,000 reagents; this is an unselected part. About 1,550 of them (2.6%) were called active. 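G2 share is only a proxy for re-replication; each gene was hit by three separate siRNAs, and active genes were retested.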 Raw values vary from plate to plate and are shown uncorrected. The numbers tell different reagents against one gene apart. Not stated in the record: the amount of reagent.
Target gene,reagent no.,G2 robust z-score,"G2 cells, % of GMNN control",raw share of cells in G2 (%),call
UTS2R,1,-0.583,-1.14,4.59,inactive
UTS2R,2,-0.364,0.408,4.84,inactive
UTS2R,3,-0.193,1.61,4.68,inactive
EDN2,1,0.018,3.09,4.73,inactive
EDN2,2,1.27,11.9,10.9,inactive
EDN2,3,3.36,26.6,13.8,inactive
ZNF585A,1,-0.657,-1.66,2.52,inactive
ZNF585A,2,0.158,4.08,4.58,inactive
ZNF585A,3,-0.198,1.57,4.08,inactive
TNC,1,-0.81,-2.73,4.05,inactive
TNC,2,2.24,18.7,12.8,inactive
TNC,3,-0.39,0.223,4.28,inactive
RNF128,1,1.64,14.5,9.47,inactive
RNF128,2,-0.859,-3.07,4.37,inactive
RNF128,3,1.01,10.1,7.88,inactive
NR1D2,1,-0.0768,2.43,6.5,inactive
NR1D2,2,-0.394,0.194,4.61,inactive
NR1D2,3,0.0988,3.66,5.17,inactive
TMIE,1,-0.319,0.72,3.9,inactive
TMIE,2,-0.0938,2.31,3.94,inactive
TMIE,3,-0.499,-0.544,3.1,inactive
ZNF385B,1,-0.605,-1.29,4.16,inactive
ZNF385B,2,6.69,50.1,29.8,active
ZNF385B,3,5.6,42.4,20.2,active
EPM2A,1,-0.376,0.321,4.9,inactive
EPM2A,2,-0.556,-0.946,4.02,inactive
EPM2A,3,1.84,15.9,8.29,inactive
ZNF547,1,-0.345,0.539,3.28,inactive
ZNF547,2,-0.644,-1.56,2.62,inactive
ZNF547,3,0.0761,3.5,4.75,inactive
CERKL,1,0.11,3.74,5.05,inactive
CERKL,2,0.193,4.32,5.29,inactive
CERKL,3,3.13,25,15.3,inactive
OR5AK2,1,-0.405,0.114,3.81,inactive
OR5AK2,2,-0.78,-2.52,2.31,inactive
OR5AK2,3,0.496,6.45,7.4,inactive
MAP6D1,1,1.79,15.6,10.9,inactive
MAP6D1,2,1.02,10.2,8.75,inactive
MAP6D1,3,-0.315,0.748,2.58,inactive
BCL2,1,-0.898,-3.35,3.88,inactive
BCL2,2,4.39,33.9,16.2,inactive
BCL2,3,-0.475,-0.373,3.85,inactive
SLC5A6,1,3.59,28.3,14.8,inactive
SLC5A6,2,-0.427,-0.0351,5.25,inactive
SLC5A6,3,-0.126,2.08,5.48,inactive
MYO1D,1,-0.0457,2.65,4.07,inactive
MYO1D,2,0.273,4.89,7.41,inactive
MYO1D,3,6.14,46.1,23.2,active
RIPOR2,1,6.82,51,28.4,active
RIPOR2,2,-0.142,1.97,4.77,inactive
RIPOR2,3,0.789,8.52,6.51,inactive
TVP23C,1,0.199,4.37,4.42,inactive
TVP23C,2,-0.0812,2.4,3.52,inactive
TVP23C,3,1.19,11.3,7.66,inactive
LOC728417,1,1.13,10.9,6.72,inactive
LOC728417,2,-0.957,-3.76,2.18,inactive
LOC728417,3,0.397,5.76,5.73,inactive
CALR,1,-0.146,1.94,4.23,inactive
CALR,2,3.08,24.6,16.4,inactive
CALR,3,0.0818,3.54,4.39,inactive
OR4F29,1,-0.235,1.31,4.61,inactive
OR4F29,2,-0.0161,2.85,4.18,inactive
OR4F29,3,-0.401,0.149,3.23,inactive
LOC727775 (retired record),1,2.02,17.2,8.94,inactive
LOC727775 (retired record),2,-0.758,-2.37,2.71,inactive
LOC727775 (retired record),3,2.48,20.4,11.3,inactive
CHMP7,1,-0.609,-1.32,3.52,inactive
CHMP7,2,-0.241,1.27,3.4,inactive
CHMP7,3,1.61,14.3,7.47,inactive

Reprinted from the listing, 8 entries:
Target gene,reagent no.,G2 robust z-score,"G2 cells, % of GMNN control",raw share of cells in G2 (%),call
SLC5A6,3,-0.126,2.08,5.48,inactive
MYO1D,1,-0.0457,2.65,4.07,inactive
MYO1D,2,0.273,4.89,7.41,inactive
MYO1D,3,6.14,46.1,23.2,active
RIPOR2,1,6.82,51,28.4,active
RIPOR2,2,-0.142,1.97,4.77,inactive
RIPOR2,3,0.789,8.52,6.51,inactive
TVP23C,1,0.199,4.37,4.42,inactive
